Data reported in US20240101663A1.
These are yes or no findings as the source states them, for the method shown. Some binding calls cover weakened binding; strength is not graded here.

Chains of the proteins cited; added tags and fusions are not shown. Residues count along the entry.
UniProt Q8NHJ6, residues 22-259: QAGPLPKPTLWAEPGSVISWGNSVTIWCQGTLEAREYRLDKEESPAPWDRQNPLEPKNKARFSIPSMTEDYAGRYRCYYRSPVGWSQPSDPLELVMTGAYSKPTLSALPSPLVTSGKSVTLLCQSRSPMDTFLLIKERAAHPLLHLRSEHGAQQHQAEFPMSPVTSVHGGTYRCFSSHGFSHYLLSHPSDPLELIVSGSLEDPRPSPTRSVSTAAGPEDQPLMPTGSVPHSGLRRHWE
UniProt P28908, residues 19-385: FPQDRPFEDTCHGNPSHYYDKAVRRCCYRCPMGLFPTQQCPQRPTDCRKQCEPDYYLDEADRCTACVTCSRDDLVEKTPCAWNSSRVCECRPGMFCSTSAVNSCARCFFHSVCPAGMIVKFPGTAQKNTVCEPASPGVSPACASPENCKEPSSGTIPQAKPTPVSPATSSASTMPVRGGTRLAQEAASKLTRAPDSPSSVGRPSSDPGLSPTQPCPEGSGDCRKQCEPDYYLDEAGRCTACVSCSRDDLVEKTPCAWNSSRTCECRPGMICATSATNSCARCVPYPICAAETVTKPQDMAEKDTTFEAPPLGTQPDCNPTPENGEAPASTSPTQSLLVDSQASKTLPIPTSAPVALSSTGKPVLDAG

Legend:
[1] = target: LILRB4 extracellular region protein fragment labeled with hFc (UniProt Q8NHJ6); assay: ELISA, CCDC112 coated at different concentrations, receptor-hFc in solution
[2] = target: CD30 extracellular region protein fragment labeled with hFc (UniProt P28908); assay: ELISA, CCDC112 coated, 1 ug/mL receptor-hFc, anti-human Fc detection
[3] = target: LILRB4 extracellular region protein fragment labeled with hFc (UniProt Q8NHJ6); assay: as above
[4] = target: CD30 extracellular region protein fragment labeled with hFc (UniProt P28908); assay: ELISA, CCDC112 coated, CD30-hFc in solution at different pH values
[5] = target: CD30 extracellular region protein fragment labeled with hFc (UniProt P28908); assay: ELISA, coated CCDC112 gradient, CD30-hFc at 0.5 µg/mL at five pH values; target taken from the plot title 'CCDC112-CD30' (legend paragraph 73 names LTBR for FIG. 4)
[6] = target: CD30 extracellular region protein fragment labeled with hFc (UniProt P28908); assay: ELISA with yeast-expressed CCDC112 protein
[7] = target: LILRB4 extracellular region protein fragment labeled with hFc (UniProt Q8NHJ6); assay: ELISA with yeast-expressed CCDC112 protein
[8] = target: LILRB4 extracellular region protein fragment labeled with hFc (UniProt Q8NHJ6); assay: ELISA, CCDC112 coated at 10, 3.3 and 1.1 ug/mL, LILRB4-hFc at 2 µg/mL (sheet title; the text says 1 µg/mL), anti-human Fc detection, 450 nm

- binding [1]: binds
- binding [2]: binds
- binding [3]: binds
- binding [4]: binds
- binding [5]: binds
- binding [6]: binds
- binding [7]: binds
- binding [8]: binds
B1: CCDC112 recombinant protein (coiled-coil domain-containing protein 112) (ligand)
chain: MEKDKHSHFYNQKSDFRIEHSMLEELENKLIHSRKTERAKIQQQLAKIHNNVKKLQHQLKDVKPTPDFVEKLREMMEEIENAINTFKEEQRLIYEELIKEEKTTNNELSAISRKIDTWALGNSETEKAFRAISSKVPVDKVTPSTLPEEVLDFEKFLQQTGGRQGAWDDYDHQNFVKVRNKHKGKPTFMEEVLEHLPGKTQDEVQQHEKWYQKFLALEERKKESIQIWKTKKQQKREEIFKLKEKADNTPVLFHNKQEDNQKQKEEQRKKQKLAVEAWKKQKSIEMSMKCASQLKEEEEKEKKHQKERQRQFKLKLLLESYTQQKKEQEEFLRLEKEIREKAEKAEKRKNAADEISRFQERDLHKLELKILDRQAKEDEKSQKQRRLAKLKEKVENNVSRDPSRLYKPTKGWEERTKKIGPTGSGPLLHIPHRAIPTWRQGIQRRV
